The supplement of paper PMC12282887
These are raw signals, not scaled to a control.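 For antimicrobials the highest concentration approximated the MIC. Most other compounds topped out at 500 µM, and known inducer-like compounds reached up to 1 mM. Inocula for deletion strains were tenfold smaller, and any well growing below 10% of the overall median was considered non-growing.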

Test system: Escherichia coli BW25113
Experiment: growth (OD600 area under curve, 8 h) (OD600 x h); higher = more growth
Protocol: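 E. coli BW25113 reporter strains (wild type, ΔmarA, ΔsoxS, Δrob, each carrying one of 8 lux reporter plasmids) were grown in 40 µl LB in 384-well plates at 37°C, 800 rpm, with each compound at 4 two-fold concentrations, in biological duplicates. Growth is the baseline-corrected OD600 area under the curve over 8 h (0-8 h WT, 1-9 h deletion strains).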

c1ccc2[nH]ccc2c1 [Indole]
growth
Details	reporter plasmid: EVC	reporter plasmid: acrABp	reporter plasmid: marRABp	reporter plasmid: micFp	reporter plasmid: ompFp	reporter plasmid: robp	reporter plasmid: soxSp	reporter plasmid: tolCp
14.6 µg/ml, genetic background: wild type	2.91	2.9	2.98	3.24	2.88	3.13	3.11	3.09
14.6 µg/ml, genetic background: ΔmarA	3.38	4.21	3.44	3.15	3.4	3.55	3.05	3.03
14.6 µg/ml, genetic background: Δrob	2.92	2.79	3.3	3.24	2.67	2.54	3.05	3.2
14.6 µg/ml, genetic background: ΔsoxS	3.07	3.09	3.01	2.74	2.7	2.75	2.96	3.07
29.3 µg/ml, genetic background: wild type	2.81	2.69	3.046	3.13	2.85	3.06	2.91	3.1
29.3 µg/ml, genetic background: ΔmarA	3.23	4.1	3.37	3.16	3.42	3.44	3.05	3.02
29.3 µg/ml, genetic background: Δrob	2.62	2.66	3.39	3.08	2.52	2.42	3.05	3.2
29.3 µg/ml, genetic background: ΔsoxS	2.81	2.82	3.17	2.61	2.6	2.92	2.79	3.02
58.6 µg/ml, genetic background: wild type	3.07	3.04	3.235	3.07	3.08	3.19	2.9968	3
58.6 µg/ml, genetic background: ΔmarA	3.27	4.4	3.92	3.33	3.48	3.66	3.01	3.14
58.6 µg/ml, genetic background: Δrob	2.88	3.18	3.57	3.15	2.66	2.72	3.08	3.28
58.6 µg/ml, genetic background: ΔsoxS	3.28	3.3	3.43	2.74	2.99	3.38	3.28	3.26
117.2 µg/ml, genetic background: wild type	2.73	2.3	2.81	2.59	2.44	2.56	2.51	2.89
117.2 µg/ml, genetic background: ΔmarA	3.17	3.99	3.317	3.22	3.01	3.33	2.58	2.79
117.2 µg/ml, genetic background: Δrob	2.47	2.44	2.98	2.7	2.363	2.17	2.47	3.04
117.2 µg/ml, genetic background: ΔsoxS	2.81	2.62	2.64	2.28	2.19	2.34	2.65	3.0006

CN(C)C(=O)C(CCN1CCC(O)(c2ccc(Cl)cc2)CC1)(c1ccccc1)c1ccccc1 [Loperamide]
growth
Details	reporter plasmid: EVC	reporter plasmid: acrABp	reporter plasmid: marRABp	reporter plasmid: micFp	reporter plasmid: ompFp	reporter plasmid: robp	reporter plasmid: soxSp	reporter plasmid: tolCp
32.1 µg/ml, genetic background: wild type	2.65	2.97	3.32	3	2.95	2.97	2.84	2.7
32.1 µg/ml, genetic background: ΔmarA	2.85	3.97	3.18	2.65	2.83	3.23	2.73	2.86
32.1 µg/ml, genetic background: Δrob	2.35	3.09	3.44	2.83	2.41	2.81	2.61	2.88
32.1 µg/ml, genetic background: ΔsoxS	2.49	2.93	3.3	2.47	2.7	3.22	2.76	2.56
64.2 µg/ml, genetic background: wild type	2.72	2.92	3.21	2.9	2.73	2.86	2.71	2.8
64.2 µg/ml, genetic background: ΔmarA	2.94	3.395	2.91	2.88	2.77	3.21	2.81	2.89
64.2 µg/ml, genetic background: Δrob	2.39	2.84	3.393	2.81	2.56	2.846	2.5	2.95
64.2 µg/ml, genetic background: ΔsoxS	2.59	3.02	3.64	2.53	2.86	3.27	3.01	2.7
128.4 µg/ml, genetic background: wild type	2.9	3.181	3.251	2.88	3.107	3.27	2.76	2.8
128.4 µg/ml, genetic background: ΔmarA	2.87	4.34	3.34	2.81	3.15	3.61	2.89	2.8
128.4 µg/ml, genetic background: Δrob	2.32	2.99	3.4	2.84	2.72	2.85	2.58	2.85
128.4 µg/ml, genetic background: ΔsoxS	2.7	2.96	3.38	2.59	3.17	3.75	2.96	2.65
256.8 µg/ml, genetic background: wild type	2.73	1.64	2.07	2.44	2.02	2.01	2.52	2.58
256.8 µg/ml, genetic background: ΔmarA	2.583	2.101	1.88	2.81	1.8	2.57	2.547	2.54
256.8 µg/ml, genetic background: Δrob	2.14	1.67	1.99	2.46	1.63	1.6	2.35	2.51
256.8 µg/ml, genetic background: ΔsoxS	2.57	1.999	2.06	2.27	2.18	1.7	2.38	2.57

COc1ccc2[nH]c([S+]([O-])Cc3ncc(C)c(OC)c3C)nc2c1 (stereo not given) [Omeprazole]
growth
Details	reporter plasmid: EVC	reporter plasmid: acrABp	reporter plasmid: marRABp	reporter plasmid: micFp	reporter plasmid: ompFp	reporter plasmid: robp	reporter plasmid: soxSp	reporter plasmid: tolCp
21.6 µg/ml, genetic background: wild type	3.11	3.38	3.43	3.32	3.21	3.23	3.25	3.34
21.6 µg/ml, genetic background: ΔmarA	3.07	4.16	3.56	3.25	3.25	3.69	2.91	2.91
21.6 µg/ml, genetic background: Δrob	3.13	3.09	3.47	2.93	2.43	2.85	3.12	3.239
21.6 µg/ml, genetic background: ΔsoxS	3.334	3.17	3.28	3.05	2.92	3.31	3.11	3.38
43.2 µg/ml, genetic background: wild type	3	3.357	3.28	3.16	3.15	3.04	3.13	3.09
43.2 µg/ml, genetic background: ΔmarA	3.05	3.72	3.2	3.16	3.07	3.3	2.91	2.85
43.2 µg/ml, genetic background: Δrob	2.91	2.86	3.17	2.97	2.31	2.7	3.02	3.276
43.2 µg/ml, genetic background: ΔsoxS	3.28	3.19	3.2	2.631	2.92	3.21	2.97	3.22
86.4 µg/ml, genetic background: wild type	3.23	3.18	3.38	3.07	3.26	3.33	3.13	3.2
86.4 µg/ml, genetic background: ΔmarA	3.07	4.14	3.44	2.67	3.08	3.43	2.71	2.87
86.4 µg/ml, genetic background: Δrob	3.17	3.08	3.53	2.81	2.51	2.86	3.06	3.09
86.4 µg/ml, genetic background: ΔsoxS	3.35	3.52	3.51	2.5	3.04	3.5	2.96	3.23
172.7 µg/ml, genetic background: wild type	3.01	3.06	3.25	3.21	3.12	3.4	3.17	3.25
172.7 µg/ml, genetic background: ΔmarA	3.14	4.05	3.29	2.78	3.19	3.49	2.9	2.86
172.7 µg/ml, genetic background: Δrob	2.97	2.73	3.44	3.2	2.65	2.77	2.71	3.06
172.7 µg/ml, genetic background: ΔsoxS	3.53	3.19	3.11	2.87	2.93	3.45	3.14	3.44

CC(=O)C(NC(=O)C(C)C(O)C(C)NC(=O)C(NC(=O)c1nc(C(CC(N)=O)NCC(N)C(N)=O)nc(N)c1C)C(O[C@@H]1O[C@@H](CO)[C@@H](O)[C@H](O)[C@]1(C)O[C@@H]1OC(CO)[C@H](O)[C@](O)(C(N)=O)[C@H]1O)c1cnc[nH]1)C(=O)NCCC1=NC(c2nc(C(N)=O)cs2)CS1 (stereo not given in full) [Phleomycin]
growth
Details	reporter plasmid: EVC	reporter plasmid: acrABp	reporter plasmid: marRABp	reporter plasmid: micFp	reporter plasmid: ompFp	reporter plasmid: robp	reporter plasmid: soxSp	reporter plasmid: tolCp
0.62 µg/ml, genetic background: wild type	2.17	1.61	1.88	1.98	1.38	1.94	2.35	2.16
0.62 µg/ml, genetic background: ΔmarA	1.54	0.81	0.341	1.32	0.647	1.15	1.44	1
0.62 µg/ml, genetic background: Δrob	1.01	0.3	0.867	1.58	0.36	0.271	1.54	1.55
0.62 µg/ml, genetic background: ΔsoxS	1.47	1.35	0.403	1.3	1.05	1.2	1.02	1.34
1.2 µg/ml, genetic background: wild type	1.41	0.554	0.725	1.41	0.297	0.685	1.58	1.45
1.2 µg/ml, genetic background: ΔmarA	0.0758	0.0205	0.0266	0.226	-0.0222	0.0266	0.0828	0.0555
1.2 µg/ml, genetic background: Δrob	0.0186	-0.00388	0.0957	0.501	-0.0214	0.00377	0.476	0.481
1.2 µg/ml, genetic background: ΔsoxS	0.523	0.125	0.0442	0.147	0.129	0.111	0.189	0.15
2.5 µg/ml, genetic background: wild type	0.646	0.0886	0.161	0.478	0.0808	0.163	0.564	0.603
2.5 µg/ml, genetic background: ΔmarA	0.00541	-0.0201	-0.0144	-0.0283	-0.0636	-0.036	-0.011	-0.0293
2.5 µg/ml, genetic background: Δrob	-0.0358	-0.0614	0.0266	-0.0172	-0.0575	-0.00543	-0.00565	0.0384
2.5 µg/ml, genetic background: ΔsoxS	0.0743	0.0813	-0.00943	0.0403	0.0344	0.0258	0.0427	0.0116
5 µg/ml, genetic background: wild type	0.125	0.0245	0.0891	0.166	0.0596	0.121	0.172	0.212
5 µg/ml, genetic background: ΔmarA	-0.0148	-0.0236	-0.0036	-0.0226	-0.0463	-0.028	-0.0392	-0.046
5 µg/ml, genetic background: Δrob	-0.121	-0.0309	-0.0178	-0.0815	-0.0413	-0.0037	-0.00633	-0.0258
5 µg/ml, genetic background: ΔsoxS	0.0244	0.0304	-0.0485	-0.0112	-0.00389	0.0018	-0.0011	-0.013

O=C(/C=C/C=C/c1ccc2c(c1)OCO2)N1CCCCC1 [Piperine]
growth
Details	reporter plasmid: EVC	reporter plasmid: acrABp	reporter plasmid: marRABp	reporter plasmid: micFp	reporter plasmid: ompFp	reporter plasmid: robp	reporter plasmid: soxSp	reporter plasmid: tolCp
17.8 µg/ml, genetic background: wild type	3.342	3.26	3.47	3.19	3.28	3.54	3.11	3.28
17.8 µg/ml, genetic background: ΔmarA	3.45	4.58	3.88	3.62	3.73	4.23	3.41	3.435
17.8 µg/ml, genetic background: Δrob	3.04	3.22	3.59	3.12	2.94	2.92	2.77	3.12
17.8 µg/ml, genetic background: ΔsoxS	3.33	3.16	3.32	3.17	3.26	3.41	3.21	3.38
35.7 µg/ml, genetic background: wild type	3.291	3.18	3.41	3.02	3.23	3.49	3.08	3.19
35.7 µg/ml, genetic background: ΔmarA	3.04	3.99	3.63	3.32	3.52	3.94	2.74	3.07
35.7 µg/ml, genetic background: Δrob	2.99	3.07	3.45	2.99	2.79	2.7	2.54	2.97
35.7 µg/ml, genetic background: ΔsoxS	3.12	3.32	3.32	2.89	3.13	3.2	2.94	3.26
71.3 µg/ml, genetic background: wild type	3.31	3.24	3.43	2.98	3.2	3.31	2.91	3.19
71.3 µg/ml, genetic background: ΔmarA	3.2	4.18	3.75	3.26	3.59	4.06	3.12	3.13
71.3 µg/ml, genetic background: Δrob	2.97	3.23	3.55	3.09	2.83	2.81	2.52	3.2
71.3 µg/ml, genetic background: ΔsoxS	3.18	3.13	3.45	2.95	3.04	3.24	2.825	3.28
142.7 µg/ml, genetic background: wild type	3.214	3.11	3.2	2.72	3.07	2.91	2.9	3.02
142.7 µg/ml, genetic background: ΔmarA	2.956	3.79	3.42	3.33	3.45	3.94	2.97	3.07
142.7 µg/ml, genetic background: Δrob	2.93	2.78	3.36	3.01	2.57	2.28	2.48	3.15
142.7 µg/ml, genetic background: ΔsoxS	2.98	3.11	3.01	2.76	2.75	2.73	2.69	3.23
